# Measured values taken from publication PMC4364341, “NBD delivery improves the disease phenotype of the golden retriever model of Duchenne muscular dystrophy” (Skeletal Muscle, 2014).
# Key:
# Type in all cases: in vivo, dog
# [1] = Body mass, GRMD dogs; conditions: n = 6
# [2] = Body mass, wild type dogs; conditions: n = 3
# [3] = tested on: wild type dogs; experiment: Eccentric contraction decrement (ECD), wild type dogs; conditions: n = 3; for ECD (1-10): after 10 contractions; for ECD (1-30): after 30 contractions
# [4] = NBD group, age 2 months (start of treatment)
# [5] = age 6 months, NBD 10 mg/kg IV 3x weekly for 4 months
sequence,measurement,setting,value
"TALDWSWLQTE [NBD, NBD peptide (…) fused to an Antennapedia protein transduction domain]",Body Mass,[1]; [4],3.60 ± 0.27 kg
same,Body Mass,[1]; [5],12.70 ± 2.81^1 kg
same,Body Mass,[2]; [4],4.99 ± 1.83 kg
same,Body Mass,[2]; [5],21.10 ± 3.15^1 kg
same,ECD (1-10),[3]; [4],13.36 ± 2.65%
same,ECD (1-10),[3]; [5],14.47 ± 7.31%
same,ECD (1-30),[3]; [4],33.44 ± 10.3%
same,ECD (1-30),[3]; [5],23.25 ± 17.4%
